Source: PubChem BioAssay AID504467 (National Center for Advancing Translational Sciences (NCATS), 2011)
“And” between values parts separate entries of the source, which are not always exact repeats. Identical values can stand only once. The campaign covered roughly 330,000 compounds. About 7,700 (2.3%) were called active. The shares of active, inactive and inconclusive entries below differ from those in the screen. Calls come from the whole dose curve; as a rule, active = well fitted inhibition curve with a large enough effect; inconclusive = small, poorly fitted or top-dose-only effect, or effect the other way; inactive = flat fitted curve, though single readings scatter. Potencies of inconclusive entries are doubtful fits and often do not repeat.

Assay: qHTS screen for small molecules that inhibit ELG1-dependent DNA repair in human embryonic kidney (HEK293T) cells expressing luciferase-tagged ELG1; note: nearly all actives have a fitted effect of over 55% in size
Conditions: HEK293T ELG1-luciferase reporter, luminescence, 16 h, DNA damage induced by 5-fluorouridine; series mostly up to 46.1 µM
Method in brief: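 Reporter activity after DNA damage by 5-fluorouridine is monitored. Compound-treated cells incubate 16 hr at 37 °C, then ONE-Glo is added for 30 min before luminescence reading.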
Potency is the fitted concentration of half-maximal effect.

| SMILES | Potency |
| --- | --- |
| O=C(c1noc2c1CCc1ccccc1-2)N1CCCc2ccccc21 | inconclusive: 9.2 µM [activator, single point] |
| COc1ccc(O)c(-c2cc(-c3ccccc3Cl)[nH]n2)c1 | inactive |
| O=C(Nc1nc2cc3c(cc2s1)OCCO3)C1CCCCC1 | inconclusive: 0.92 µM [activator, partial curve] |
| Cc1cccc(OCCCC(=O)NNC(=O)c2ccccn2)c1 | inconclusive: 29.1 µM [activator, single point] |
| COc1ccc(-c2csc(NC(=O)c3c(C)noc3C)n2)cc1F | inconclusive: 29.1 µM [inhibitor, single point] |
| CC(C)CSc1n[nH]c(N)n1 | inconclusive: 29.1 µM [activator, single point] |
| CC(C)c1ccc(NC(=O)Cc2ccc(NC3=NC4CS(=O)(=O)CC4S3)cc2)cc1 (stereo not given) | inconclusive: 18.3 µM [activator, single point] |
| O=C(CSc1cn[nH]n1)Nc1cccc(C(F)(F)F)c1 | inactive |
| CC(=O)n1cc(N(C(=O)CCl)c2ccc(C)cc2)c2ccccc21 | active: 23.1 µM |
| Cc1ccsc1C(=O)NNC(=O)CCN1CCN(c2ccccc2)CC1 | inconclusive: 25.9 µM [activator, single point] |
| O=C(CS(=O)(=O)Cc1ccccc1)N1CCc2ccccc21 | inconclusive: 29.1 µM [activator, single point] |
| CCN(CC)c1ccc2c(c1)CCCN2 | inconclusive: 32.6 µM [inhibitor, single point] |
| COc1c(Cl)cc(C(=O)NN)cc1Cl | inconclusive: 29.1 µM [activator, single point] |
| CN1C=CC2=C(C#N)C(N)C(C#N)(C#N)[C@H](c3ccccc3)[C@H]2C1 (stereo not given in full) | inactive |
| O=C(N/N=C/c1ccc(F)cc1)c1cc[n+]([O-])cc1 | inactive |
| Cc1nnc(NC(=O)c2ccccc2NC(=O)c2ccccc2)s1 | inconclusive: 25.9 µM [inhibitor, single point] |
| C/C(CCc1ccccc1)=N\NC(=O)CC(=O)NCCc1ccccc1 | inactive |
| COc1ccc(/C=C/C(=O)C2CC2)cc1Cn1nc(C)c([N+](=O)[O-])c1C | inactive |
| Cc1ccc(S(=O)(=O)N2CCCCC2)cc1NC(=O)c1ccc2c(c1)OCO2 | inconclusive: 9.2 µM [inhibitor, partial curve] |
| Cc1ccc(C)c(NS(=O)(=O)c2cc(C(=O)Nc3cccc(N(C)S(C)(=O)=O)c3)ccc2C)c1 | inconclusive: 29.1 µM [inhibitor, single point] |
| CC1CCCC(C)N1C(=O)COC(=O)CCC1CCCC1 (stereo not given) | inactive |
| Nc1cc(C(=O)OCC(=O)NC(c2ccccc2)c2ccccc2)ccc1Cl | inconclusive: 29.1 µM [activator, partial curve, poor fit] |
| CC1=C(C(N)=O)S(=O)(=O)c2ccccc21 | inactive |
| O=C(Nc1ccc(S(=O)(=O)NCCc2ccccc2)cc1)c1ccncc1 | inactive |

| SMILES | Potency |
| --- | --- |
| Cc1cccn2cc(-c3ccc4c(c3)NC(=O)CO4)nc12 | inconclusive: 6.51 µM [activator, partial curve] |
| Cc1ccc(OCC(=O)NNC(=S)NC(=O)c2cccs2)c(C)c1 | inactive |
| CN(c1ccc(O)cc1)c1nc(-c2cccnc2)cs1 | inconclusive: 4.11 µM [activator, partial curve] |
| Cc1sc2ncnc(N3CCC(C(=O)N(C)CC(=O)Nc4ccccc4Cl)CC3)c2c1C | active: 7.3 µM |
| CSc1nc(N2CCN(Cc3ccc4c(c3)OCO4)CC2)c2ccccc2n1 | inconclusive: 29.1 µM [inhibitor, single point] |
| O=C(c1ccc(Cl)cc1)c1ccc(Oc2cc(NN3CCCCC3)c([N+](=O)[O-])cc2[N+](=O)[O-])cc1 | inactive |
| COc1ccc(-c2csc(/C(C#N)=C\c3ccc(OC)c([N+](=O)[O-])c3)n2)cc1 | inactive |
| COC(=O)c1ccc(Nc2nc3ccc(C)cc3n3cnnc23)cc1 | inconclusive: 20.6 µM [activator, partial curve] |
| CCC1=NN(C(=O)Cc2ccc([N+](=O)[O-])cc2)C(O)(c2ccncc2)C1 (stereo not given) | inactive |
| CN(C)S(=O)(=O)Nc1cccc(NC(=O)CC23CC4CC(CC(C4)C2)C3)c1 | inconclusive: 25.9 µM [inhibitor, single point] |
| C=CC[C@@H](CC(=O)N(CCO)Cc1ccccc1)C(=O)N[C@@H](C)COC(=O)[C@@H](CC=C)Cc1ccc(F)cc1 | active: 18.3 µM |
| Cc1cc(NC(=O)CSc2nc3ccsc3c(=O)n2Cc2ccccn2)n[nH]1 | inconclusive: 35.5 µM [activator, single point] |
| CCOc1ccc(-c2noc(CCC(=O)O)n2)cc1 | inconclusive: 20.6 µM [activator, single point] |
| COc1ccc(C2CC(=O)N(CC(=O)NCC3CCCO3)c3ccccc3S2)cc1 (stereo not given) | inconclusive: 29.1 µM [activator, single point] |
| Cc1[nH]c2ccccc2c1C(=O)CSc1nc2cc(S(=O)(=O)N3CCCCC3)ccc2o1 | active: 14.6 µM |
| O=C(CO/N=C/c1ccc(OC(F)F)cc1)NCc1ccc(F)cc1 | inconclusive: 20.6 µM [inhibitor, partial curve, poor fit] |
| O=S(=O)(N/N=C/c1ccc2c(c1)OCO2)c1ccc(Br)cc1 | inconclusive: 16.4 µM [inhibitor, partial curve, poor fit] |
| CCCN(CC(=O)Nc1ccccc1C)C(=O)c1ccc2[nH]c3c(c2c1)CC(C)CC3 (stereo not given) | active: 9.2 µM |
| CCC(=O)Nc1c(-c2ccccc2Cl)c(=O)c2ccccc2n1CC | inactive |
| O=C(c1cccc([N+](=O)[O-])c1)c1ccc2c(c1)C(=O)NC2=O | inactive |
| O=C(CSc1nc2nc(-c3cccs3)cc(C(F)(F)F)c2c(=O)[nH]1)Nc1c(F)c(F)c(F)c(F)c1F | inconclusive: 20.6 µM [inhibitor, partial curve] |
| O=C1CCN(Cc2ccccc2)C=C1c1ccc2ccccc2c1 | inconclusive: 7.3 µM [activator, partial curve] |
| COc1cc2oc3ccccc3c(=O)c2cc1OC | inconclusive: 2.91 µM [activator, partial curve, poor fit] |
| O=C(COC(=O)CC1CC2CCC1C2)NCc1ccc(F)cc1 (stereo not given) | inconclusive: 20.6 µM [activator, partial curve, poor fit] |

| SMILES | Potency |
| --- | --- |
| O=Cc1ccc(OC(=O)c2cccnc2)cc1 | inactive |
| O=C(Cn1cc(C(F)(F)F)cc(Cl)c1=O)NCc1ccc(Cl)cc1 | inconclusive: 16.4 µM [activator, partial curve, poor fit] |
| CCCCn1c(=O)[nH]c(=O)c2c1nc(CN1C(=O)c3ccccc3S1(=O)=O)n2CCC | inconclusive: 16.4 µM [inhibitor, partial curve, poor fit] |
| CC1Cc2ccccc2N1S(=O)(=O)c1cccc(C(=O)NC2CC2)c1 (stereo not given) | inconclusive: 25.9 µM [inhibitor, partial curve, poor fit] |
| Cn1nnnc1SCc1nnc(-c2ccc(Cl)cc2)o1 | inconclusive: 23.1 µM [activator, single point] |
| Cc1ccccc1Cn1nnc(C(=O)Nc2cccc(C)c2C)c1N | inconclusive: 23.1 µM [activator, single point] |
| CC1CCN(C(=O)C2CCN(C(=O)c3ccc(C(C)(C)C)cc3)CC2)CC1 | inconclusive: 25.9 µM [inhibitor, partial curve] |
| Cc1ccc(OCc2nnc(SCC(=O)Nc3cccc4ccccc34)n2-c2ccccc2)cc1 | inconclusive: 29.1 µM [inhibitor, single point] |
| CC(=O)NC(NC(=S)Nc1ccc(N=Nc2ccccc2C)cc1C)C(Cl)(Cl)Cl (stereo not given) | inactive |
| O=C(NCCCN1CCOCC1)c1ccc(CNS(=O)(=O)c2ccc(F)cc2)cc1 | inactive |
| Cc1ccc(C(=O)Nc2ccccc2C(=O)NCC2CCCO2)cc1 (stereo not given) | inconclusive: 8.2 µM [inhibitor, partial curve, poor fit] |
| COc1ccc(-c2nc(SC)n(C(=O)c3ccco3)n2)cc1 | inconclusive: 20.6 µM [activator, partial curve] |
| CCc1nc(SCC(=O)N2CCOCC2)c2c(=O)n(C)c(=O)n(C)c2n1 | inactive |
| CCCSc1nnc(NC(=O)Nc2ccc(F)cc2)s1 | inactive |
| O=C(CN1C2CCCC1CC(NC(=O)c1ccco1)C2)Nc1ccccc1C(F)(F)F (stereo not given) | inconclusive: 20.6 µM [inhibitor, partial curve] |
| O=C(N/C(=C\c1ccc(Cl)cc1)C(=O)N1CCOCC1)c1ccc([N+](=O)[O-])cc1 | inconclusive: 2.31 µM [inhibitor, single point] |
| Cc1ccccc1CSc1ccc2nnc(-c3ccccn3)n2n1 | inactive |
| Cn1ncc(Cl)c1C(=O)Nc1nc2ccc(Cl)cc2s1 | inconclusive: 1.84 µM [activator, full curve] |
| Cc1ccc(N(CC2=NCCN2)c2cccc(O)c2)cc1 | inconclusive: 23.1 µM [inhibitor, single point] and inconclusive: 29.1 µM [inhibitor, single point] |
| CCOC(=O)c1nn(-c2ccc3c(c2)OCCO3)cc1O | inconclusive: 8.2 µM [activator, partial curve] |
| COc1ccc(C(=O)C2CCN(CC(=O)NCc3ccccc3)CC2)cc1 | inconclusive: 25.9 µM [inhibitor, partial curve, poor fit] |
| Cc1nn(-c2ccccc2)c(C)c1C=O | inactive |
